At least one structure is not confirmed: it was looked up by name or label, or the drawing left a doubt.
What was measured:
[1] = test system: Matrix metallo proteinase-9 (MMP-9); assay: Gelatinase zymography, human cancer cells; format: cell-based; details: control ++++
[2] = test system: Matrix metallo proteinase-9 (MMP-9); assay: Gelatinase zymography, S-180 cells; format: cell-based, mouse; design: key to the marks not given beside the values; details: control ++++

Question: `CC1=C2C3OC(=O)C(C)C3(O)CCC2(C)CCC1` (stereo not shown) [HAC-1, 7-hydroxyeudesm-4-en-6,12-olide] was tested. Which “MMP-9 Activity” value ([1]; COLO-320 DM) did it give?
Answer: Its value is “++”.

Question: And the “MMP-9 Activity” value ([1]; HL-60)?
Answer: Its value is “+”.

Question: What about the “MMP-9 Activity” value ([1]; MCF-7) of the same molecule?
Answer: The value was “++”.

Question: And the “MMP-9 Activity” value ([1]; MDA)?
Answer: The value was “++”.

Question: What about the “MMP-9 Activity” value ([1]; SKBr-3) of the same molecule?
Answer: Its value is “++”.

Question: And the “MMP-9 Activity” value ([1]; ZR-75)?
Answer: The value was “+”.

Question: And the “MMP-9 Activity” value [2]?
Answer: Its value is “++”.

Reference: US20080199550A1, “Novel Anticancer Agent, Methods for Obtaining the Same and Pharmaceutical Compositions Thereof” (priority 2005, published 2008)
